The results in this text go back to paper PMC12891473.

Sequences of proteins named here, by UniProt entry; tags and fusion partners are left off. A change or cut given only in a name is not applied to a line headed by its entry.
UniProt A0A509AF70: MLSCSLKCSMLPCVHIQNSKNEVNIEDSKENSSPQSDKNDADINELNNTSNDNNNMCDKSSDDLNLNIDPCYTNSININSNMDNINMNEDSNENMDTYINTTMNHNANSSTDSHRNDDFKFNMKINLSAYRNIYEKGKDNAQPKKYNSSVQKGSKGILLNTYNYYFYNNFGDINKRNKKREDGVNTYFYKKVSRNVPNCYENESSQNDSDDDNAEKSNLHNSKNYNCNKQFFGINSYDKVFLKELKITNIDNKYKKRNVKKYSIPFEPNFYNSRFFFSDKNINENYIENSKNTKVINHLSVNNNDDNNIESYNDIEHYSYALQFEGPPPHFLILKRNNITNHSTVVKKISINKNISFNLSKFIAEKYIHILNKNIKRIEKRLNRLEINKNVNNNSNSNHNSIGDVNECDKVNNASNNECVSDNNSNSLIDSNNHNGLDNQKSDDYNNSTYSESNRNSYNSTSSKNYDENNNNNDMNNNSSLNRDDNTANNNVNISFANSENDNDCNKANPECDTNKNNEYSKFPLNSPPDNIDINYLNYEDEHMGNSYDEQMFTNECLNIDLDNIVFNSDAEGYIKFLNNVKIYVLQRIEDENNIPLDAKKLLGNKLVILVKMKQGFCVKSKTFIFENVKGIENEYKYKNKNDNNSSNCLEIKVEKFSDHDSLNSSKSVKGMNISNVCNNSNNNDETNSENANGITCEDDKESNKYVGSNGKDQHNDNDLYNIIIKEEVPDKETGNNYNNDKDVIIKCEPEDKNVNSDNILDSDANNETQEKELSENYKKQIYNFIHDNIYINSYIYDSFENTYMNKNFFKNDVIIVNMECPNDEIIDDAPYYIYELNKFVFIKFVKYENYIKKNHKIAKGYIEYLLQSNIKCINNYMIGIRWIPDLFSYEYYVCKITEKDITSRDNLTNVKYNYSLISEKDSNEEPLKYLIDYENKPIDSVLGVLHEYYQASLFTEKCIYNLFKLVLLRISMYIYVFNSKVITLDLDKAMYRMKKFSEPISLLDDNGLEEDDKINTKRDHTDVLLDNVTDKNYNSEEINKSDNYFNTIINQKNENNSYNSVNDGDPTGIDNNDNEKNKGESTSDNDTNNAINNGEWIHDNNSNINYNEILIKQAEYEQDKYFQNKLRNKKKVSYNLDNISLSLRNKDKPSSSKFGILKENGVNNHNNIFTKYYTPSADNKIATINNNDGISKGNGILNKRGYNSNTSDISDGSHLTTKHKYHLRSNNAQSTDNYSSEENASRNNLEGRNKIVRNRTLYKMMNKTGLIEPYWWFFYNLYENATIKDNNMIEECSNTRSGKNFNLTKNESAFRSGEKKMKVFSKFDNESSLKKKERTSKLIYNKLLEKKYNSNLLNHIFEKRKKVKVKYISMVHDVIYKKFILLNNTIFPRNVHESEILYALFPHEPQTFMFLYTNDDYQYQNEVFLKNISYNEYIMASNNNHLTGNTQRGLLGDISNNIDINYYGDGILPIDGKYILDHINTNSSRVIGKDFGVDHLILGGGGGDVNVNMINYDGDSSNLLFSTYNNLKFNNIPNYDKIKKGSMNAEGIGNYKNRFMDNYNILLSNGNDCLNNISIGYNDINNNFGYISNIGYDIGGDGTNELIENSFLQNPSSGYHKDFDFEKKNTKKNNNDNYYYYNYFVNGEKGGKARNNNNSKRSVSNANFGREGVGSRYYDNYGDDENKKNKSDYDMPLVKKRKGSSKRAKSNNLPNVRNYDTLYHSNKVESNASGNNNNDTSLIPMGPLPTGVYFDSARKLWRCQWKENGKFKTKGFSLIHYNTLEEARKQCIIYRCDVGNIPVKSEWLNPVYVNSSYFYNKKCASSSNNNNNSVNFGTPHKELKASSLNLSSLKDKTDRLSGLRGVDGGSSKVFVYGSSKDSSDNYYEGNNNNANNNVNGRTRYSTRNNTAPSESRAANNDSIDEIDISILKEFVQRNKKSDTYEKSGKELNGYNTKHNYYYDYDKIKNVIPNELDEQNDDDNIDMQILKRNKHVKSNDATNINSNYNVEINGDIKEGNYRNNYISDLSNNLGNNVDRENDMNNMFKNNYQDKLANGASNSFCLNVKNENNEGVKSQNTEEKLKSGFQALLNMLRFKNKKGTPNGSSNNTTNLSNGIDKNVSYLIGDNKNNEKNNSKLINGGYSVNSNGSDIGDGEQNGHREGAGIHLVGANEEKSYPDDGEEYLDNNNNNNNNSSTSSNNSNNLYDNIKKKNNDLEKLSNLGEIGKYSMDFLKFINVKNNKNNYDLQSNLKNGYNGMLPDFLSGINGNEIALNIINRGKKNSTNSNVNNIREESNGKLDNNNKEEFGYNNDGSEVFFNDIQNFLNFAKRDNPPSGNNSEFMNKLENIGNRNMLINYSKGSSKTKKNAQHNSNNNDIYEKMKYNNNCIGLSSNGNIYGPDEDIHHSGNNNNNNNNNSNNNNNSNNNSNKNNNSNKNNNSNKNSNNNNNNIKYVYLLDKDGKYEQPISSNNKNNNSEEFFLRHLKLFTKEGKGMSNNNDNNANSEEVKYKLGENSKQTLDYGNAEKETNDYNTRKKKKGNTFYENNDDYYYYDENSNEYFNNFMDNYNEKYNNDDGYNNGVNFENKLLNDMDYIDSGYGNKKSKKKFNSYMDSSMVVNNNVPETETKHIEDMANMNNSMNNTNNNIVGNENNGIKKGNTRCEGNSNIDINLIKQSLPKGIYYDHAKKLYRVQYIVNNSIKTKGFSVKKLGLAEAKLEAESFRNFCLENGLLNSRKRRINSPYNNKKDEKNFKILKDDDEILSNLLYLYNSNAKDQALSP
UniProt A0A509AMD3: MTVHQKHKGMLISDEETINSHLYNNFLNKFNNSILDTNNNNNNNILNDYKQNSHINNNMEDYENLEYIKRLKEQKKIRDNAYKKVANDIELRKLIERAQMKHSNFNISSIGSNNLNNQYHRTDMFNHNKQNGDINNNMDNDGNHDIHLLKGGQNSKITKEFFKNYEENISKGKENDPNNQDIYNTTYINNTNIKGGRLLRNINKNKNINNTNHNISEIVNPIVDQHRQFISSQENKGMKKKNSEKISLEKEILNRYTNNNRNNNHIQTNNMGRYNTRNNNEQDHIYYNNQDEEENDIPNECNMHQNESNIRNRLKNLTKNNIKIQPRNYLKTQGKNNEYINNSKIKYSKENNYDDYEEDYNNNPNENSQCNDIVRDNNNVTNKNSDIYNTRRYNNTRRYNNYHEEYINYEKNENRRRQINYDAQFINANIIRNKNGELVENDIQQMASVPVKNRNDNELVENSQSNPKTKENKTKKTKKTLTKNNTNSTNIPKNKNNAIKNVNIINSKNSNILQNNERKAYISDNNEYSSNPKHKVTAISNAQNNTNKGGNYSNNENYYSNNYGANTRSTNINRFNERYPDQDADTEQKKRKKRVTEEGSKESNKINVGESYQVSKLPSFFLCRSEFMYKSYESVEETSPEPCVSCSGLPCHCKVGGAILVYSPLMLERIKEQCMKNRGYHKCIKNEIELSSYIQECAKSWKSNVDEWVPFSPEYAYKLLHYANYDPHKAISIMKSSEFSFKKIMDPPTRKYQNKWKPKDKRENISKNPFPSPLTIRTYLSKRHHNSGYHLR
UniProt A0A509AIT3: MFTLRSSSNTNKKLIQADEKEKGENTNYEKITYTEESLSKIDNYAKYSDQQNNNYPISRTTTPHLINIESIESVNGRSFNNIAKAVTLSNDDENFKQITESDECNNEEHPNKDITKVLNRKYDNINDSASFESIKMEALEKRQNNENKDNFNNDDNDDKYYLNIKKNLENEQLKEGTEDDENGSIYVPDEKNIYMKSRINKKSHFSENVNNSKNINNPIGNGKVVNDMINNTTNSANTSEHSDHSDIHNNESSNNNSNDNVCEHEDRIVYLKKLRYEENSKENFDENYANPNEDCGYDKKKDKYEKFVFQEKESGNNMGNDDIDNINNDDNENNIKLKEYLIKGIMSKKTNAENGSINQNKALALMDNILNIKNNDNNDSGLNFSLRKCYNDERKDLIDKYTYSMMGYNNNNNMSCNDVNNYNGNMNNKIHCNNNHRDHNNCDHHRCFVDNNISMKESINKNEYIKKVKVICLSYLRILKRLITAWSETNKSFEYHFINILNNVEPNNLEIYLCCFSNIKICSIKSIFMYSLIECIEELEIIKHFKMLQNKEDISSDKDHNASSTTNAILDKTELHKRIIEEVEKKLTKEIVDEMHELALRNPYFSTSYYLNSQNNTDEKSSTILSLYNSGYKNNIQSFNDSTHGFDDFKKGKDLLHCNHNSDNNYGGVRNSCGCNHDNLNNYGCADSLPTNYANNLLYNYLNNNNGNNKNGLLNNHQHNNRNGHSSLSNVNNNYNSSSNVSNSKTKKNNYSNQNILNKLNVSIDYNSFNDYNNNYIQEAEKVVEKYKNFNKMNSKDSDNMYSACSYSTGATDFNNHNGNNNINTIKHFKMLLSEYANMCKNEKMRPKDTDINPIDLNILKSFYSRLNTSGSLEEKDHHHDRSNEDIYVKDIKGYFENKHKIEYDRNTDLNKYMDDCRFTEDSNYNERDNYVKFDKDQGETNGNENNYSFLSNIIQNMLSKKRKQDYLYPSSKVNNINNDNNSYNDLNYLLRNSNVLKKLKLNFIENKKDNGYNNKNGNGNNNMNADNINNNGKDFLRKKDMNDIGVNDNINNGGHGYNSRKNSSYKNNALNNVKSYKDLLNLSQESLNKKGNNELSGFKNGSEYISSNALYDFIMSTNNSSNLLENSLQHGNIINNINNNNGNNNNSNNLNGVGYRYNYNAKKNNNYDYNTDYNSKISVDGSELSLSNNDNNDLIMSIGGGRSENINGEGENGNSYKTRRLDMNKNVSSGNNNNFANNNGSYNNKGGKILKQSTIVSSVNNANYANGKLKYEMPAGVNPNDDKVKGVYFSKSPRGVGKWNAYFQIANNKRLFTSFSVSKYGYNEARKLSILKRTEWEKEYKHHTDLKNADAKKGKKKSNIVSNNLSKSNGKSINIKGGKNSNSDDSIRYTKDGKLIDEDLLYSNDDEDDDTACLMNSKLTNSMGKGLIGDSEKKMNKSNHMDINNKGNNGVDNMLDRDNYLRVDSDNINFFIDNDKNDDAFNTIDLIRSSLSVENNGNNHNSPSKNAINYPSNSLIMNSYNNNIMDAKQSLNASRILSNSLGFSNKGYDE

No constants are given. Whether binding was seen depends on the method and setting. Binding seen in cells or lysates may run through a third protein. Here binding means that the protein was enriched with, or labelled near, the bait; the list need not be complete. A no says only that the protein was not detected with the bait.

The target of the test is GFP-fused PbAP2-TR (PbAP2-TR::GFP) (P. berghei). Put plainly: affinity purification with mass spectrometry; RIME: ChIP with anti-GFP polyclonal antibodies on Protein A magnetic beads from 1% formalin-fixed, sonicated PbAP2-TR::GFP^pbap2-g(-) parasites at 12 hpi, WT parasites as control; low-salt and high-salt washes; on-bead trypsin digestion, LC-MS/MS; four biologically independent experiments.

In the case of ISWI (from UniProt A0A509AM22), the binding result is reported as “binds”.
With “PBANKA_0521700 (from UniProt A0A509AF70 1-2775)”, the binding result is “no binding”.
Then EELM2 (from UniProt A0A509AMD3), with “binds”; and PbAP2-P (from UniProt A0A509AIT3), with “no binding”.
